Source: patent US20110104152A1
No constants are given. Whether binding was seen depends on the method and setting. Some binding calls cover weakened binding; strength is not graded here. Sequences can lack the tags named with a protein.

Chains of the proteins cited; added tags and fusions are not shown. Lines headed by an entry give the natural chain unless they say otherwise; changes in a name come on top.
UniProt O95750: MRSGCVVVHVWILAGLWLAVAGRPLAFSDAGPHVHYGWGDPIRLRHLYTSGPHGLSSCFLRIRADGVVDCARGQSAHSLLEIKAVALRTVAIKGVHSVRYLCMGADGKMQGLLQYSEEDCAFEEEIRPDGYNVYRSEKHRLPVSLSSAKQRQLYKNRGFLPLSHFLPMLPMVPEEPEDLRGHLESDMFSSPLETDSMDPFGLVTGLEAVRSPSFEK

Legend:
[1] = biological target: T1, FGFR4-Fc (recombinant polypeptide comprising a human FGFR4 extracellular domain fused to a human IgG1 Fc fragment) (human) (UniProt P22455); assay: ELISA, FGFR4-Fc captured by anti-human IgG-Fc antibody, 2 µg/mL heparin, detection with biotinylated anti-FGF19 polyclonal antibody
T1 sequence (looked up): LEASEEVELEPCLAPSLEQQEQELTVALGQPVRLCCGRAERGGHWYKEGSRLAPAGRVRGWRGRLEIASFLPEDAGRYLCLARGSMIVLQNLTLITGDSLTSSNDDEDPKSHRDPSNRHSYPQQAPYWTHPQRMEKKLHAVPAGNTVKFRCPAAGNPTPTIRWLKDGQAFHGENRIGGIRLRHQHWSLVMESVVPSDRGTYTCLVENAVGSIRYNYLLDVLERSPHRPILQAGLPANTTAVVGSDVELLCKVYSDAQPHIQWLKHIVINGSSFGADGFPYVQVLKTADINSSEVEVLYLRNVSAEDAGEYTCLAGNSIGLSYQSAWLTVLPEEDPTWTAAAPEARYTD

[2] = biological target: T1, FGFR4-Fc (recombinant polypeptide comprising a human FGFR4 extracellular domain fused to a human IgG1 Fc fragment) (human); assay: solid phase binding assay on FGFR4 fused to Fc fragment, 2 µg/mL heparin (FIG. 18E)

binding [1]: binds
binding [2]: binds
Substance: native human FGF19-Flag polypeptide (from UniProt O95750 25-216) (ligand)
